Test results published in article PMC5852159, “Hydrogen peroxide positively regulates brassinosteroid signaling through oxidation of the BRASSINAZOLE-RESISTANT1 transcription factor” (Nature Communications, 2018).
These are yes or no findings as the source states them, for the method shown. In cells and extracts the contact can be indirect. A result given as binding can be weak or reduced; the word gives no strength. Tags and fused reporters may be left off the sequences shown.

Biological target: T1, TRXh5-nYFP (Arabidopsis thaliana) (UniProt Q39241)
T1 sequence: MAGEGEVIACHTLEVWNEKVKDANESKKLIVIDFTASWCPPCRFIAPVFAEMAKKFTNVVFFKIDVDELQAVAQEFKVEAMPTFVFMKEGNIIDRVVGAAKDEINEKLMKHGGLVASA
Experiment: split reporter; BiFC in tobacco leaves: BZR1-cYFP or BES1-cYFP co-expressed with TRX-h proteins fused to nYFP

For BES1-cYFP (Arabidopsis thaliana), the binding was “binds”.
